No constants are given. Whether binding was seen depends on the method and setting. Binding seen in cells or lysates may run through a third protein. Some entries that bind do so weakly or less than the wild type.
Columns and labels:
[1] = target: HA-tagged VHL (UniProt P40337); test: co-IP; reverse IP: HA-VHL precipitated, Flag-Daam2 detected; protein lysates from the PB-Ras model of glioma
[2] = target: Flag-tagged Daam2 (UniProt Q80U19); test: co-IP; immunoprecipitation of Flag-Daam2 from lysates of PB-Ras mouse glioma overexpressing Flag-Daam2; immunoblot with VHL antibody

The chains behind the UniProt entries cited, without tags or fusion partners.
UniProt P40337: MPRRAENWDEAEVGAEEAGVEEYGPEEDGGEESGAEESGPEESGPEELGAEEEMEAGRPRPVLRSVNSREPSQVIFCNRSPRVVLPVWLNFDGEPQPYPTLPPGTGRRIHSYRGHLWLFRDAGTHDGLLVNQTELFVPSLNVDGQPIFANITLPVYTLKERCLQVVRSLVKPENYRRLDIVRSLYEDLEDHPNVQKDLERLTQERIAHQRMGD
UniProt Q80U19: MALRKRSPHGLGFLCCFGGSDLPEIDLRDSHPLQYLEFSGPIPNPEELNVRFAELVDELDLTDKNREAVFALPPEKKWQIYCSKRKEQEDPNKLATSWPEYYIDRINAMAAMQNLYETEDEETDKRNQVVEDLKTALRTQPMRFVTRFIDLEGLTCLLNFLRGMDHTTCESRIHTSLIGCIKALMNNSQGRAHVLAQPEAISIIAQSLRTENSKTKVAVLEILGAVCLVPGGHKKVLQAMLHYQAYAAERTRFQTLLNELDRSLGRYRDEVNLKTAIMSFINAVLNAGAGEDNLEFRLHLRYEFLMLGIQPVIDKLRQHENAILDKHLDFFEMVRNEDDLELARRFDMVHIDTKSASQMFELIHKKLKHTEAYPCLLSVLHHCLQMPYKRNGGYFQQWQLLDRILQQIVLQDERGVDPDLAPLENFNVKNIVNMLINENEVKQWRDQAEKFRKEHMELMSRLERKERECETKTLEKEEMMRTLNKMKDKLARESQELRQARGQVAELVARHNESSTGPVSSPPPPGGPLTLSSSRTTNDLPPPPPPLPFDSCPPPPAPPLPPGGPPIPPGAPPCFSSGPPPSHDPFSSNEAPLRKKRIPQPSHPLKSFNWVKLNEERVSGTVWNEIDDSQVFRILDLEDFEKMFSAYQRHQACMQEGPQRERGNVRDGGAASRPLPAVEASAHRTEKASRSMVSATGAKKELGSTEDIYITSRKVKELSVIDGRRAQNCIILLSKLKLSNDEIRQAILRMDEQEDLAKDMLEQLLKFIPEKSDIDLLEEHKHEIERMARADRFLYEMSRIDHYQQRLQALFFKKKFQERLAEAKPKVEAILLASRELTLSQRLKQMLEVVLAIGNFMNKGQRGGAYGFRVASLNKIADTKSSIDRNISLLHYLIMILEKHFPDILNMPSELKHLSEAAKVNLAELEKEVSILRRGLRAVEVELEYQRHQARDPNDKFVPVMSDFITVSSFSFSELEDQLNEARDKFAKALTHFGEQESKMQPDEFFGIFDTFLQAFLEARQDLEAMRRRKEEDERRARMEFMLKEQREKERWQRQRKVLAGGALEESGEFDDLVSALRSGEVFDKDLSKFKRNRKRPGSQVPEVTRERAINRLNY
UniProt P40338: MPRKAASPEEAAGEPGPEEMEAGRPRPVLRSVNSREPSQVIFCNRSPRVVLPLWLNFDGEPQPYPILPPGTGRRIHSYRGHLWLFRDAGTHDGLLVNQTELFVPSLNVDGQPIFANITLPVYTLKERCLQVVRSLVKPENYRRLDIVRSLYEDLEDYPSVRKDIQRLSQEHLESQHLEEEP

Row | Substance | binding [1] | binding [2]
1 | Flag-tagged Daam2 (from UniProt Q80U19 1-1115) | binds | –
2 | endogenous VHL (from UniProt P40338 1-181) | – | binds

Reference: PMC5650470
